In PMC10648996:
No constants are given. Whether binding was seen depends on the method and setting. In cells and extracts the contact can be indirect. Some binding calls cover weakened binding; strength is not graded here.

Chains of the proteins cited; added tags and fusions are not shown. Lines headed by an entry give the natural chain unless they say otherwise; changes in a name come on top. A line that says so, or that is headed by a name, gives the form on record, which may keep a tag or linker.
HA-tagged full-length Cyclophilin E (CypE, amino acids 1–314) (Q9UNP9-3, form named): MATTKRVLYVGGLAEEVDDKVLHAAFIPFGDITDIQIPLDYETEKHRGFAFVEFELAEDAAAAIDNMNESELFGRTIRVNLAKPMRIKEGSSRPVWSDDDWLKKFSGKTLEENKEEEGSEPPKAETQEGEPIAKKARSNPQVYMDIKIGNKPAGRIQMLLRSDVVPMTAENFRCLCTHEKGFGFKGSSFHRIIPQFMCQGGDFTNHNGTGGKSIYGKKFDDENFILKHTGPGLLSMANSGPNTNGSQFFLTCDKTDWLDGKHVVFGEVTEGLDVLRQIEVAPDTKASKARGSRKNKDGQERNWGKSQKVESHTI
Myc-CypE 137–314 (Q9UNP9-3, form named): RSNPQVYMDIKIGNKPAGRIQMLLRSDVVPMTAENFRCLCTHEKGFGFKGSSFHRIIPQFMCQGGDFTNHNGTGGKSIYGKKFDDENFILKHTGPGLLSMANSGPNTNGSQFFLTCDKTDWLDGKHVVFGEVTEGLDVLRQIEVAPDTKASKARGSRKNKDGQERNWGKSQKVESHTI
UniProt Q08775: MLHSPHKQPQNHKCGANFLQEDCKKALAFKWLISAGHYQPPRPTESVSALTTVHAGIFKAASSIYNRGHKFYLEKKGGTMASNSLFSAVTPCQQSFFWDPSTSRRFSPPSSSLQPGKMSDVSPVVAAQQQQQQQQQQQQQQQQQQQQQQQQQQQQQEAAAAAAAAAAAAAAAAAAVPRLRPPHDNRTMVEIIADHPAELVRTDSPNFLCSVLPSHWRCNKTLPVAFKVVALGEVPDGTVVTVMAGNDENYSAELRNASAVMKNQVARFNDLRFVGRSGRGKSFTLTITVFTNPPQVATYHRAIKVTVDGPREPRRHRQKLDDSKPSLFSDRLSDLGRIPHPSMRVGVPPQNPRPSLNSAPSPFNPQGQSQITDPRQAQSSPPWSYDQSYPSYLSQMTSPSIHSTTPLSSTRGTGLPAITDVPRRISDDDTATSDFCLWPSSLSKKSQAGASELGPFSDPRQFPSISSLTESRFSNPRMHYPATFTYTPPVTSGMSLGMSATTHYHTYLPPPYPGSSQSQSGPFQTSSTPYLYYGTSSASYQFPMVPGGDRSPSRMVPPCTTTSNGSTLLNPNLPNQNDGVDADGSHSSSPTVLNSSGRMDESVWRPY

Columns and labels:
GST-CypE = GST-CypE (UniProt Q9UNP9); experiment: pull-down; Glutathione-Sepharose beads carrying GST, GST-Runx2 or GST-CypE incubated with whole-cell lysate of transfected HEK 293 cells at 4 °C overnight; washed with 20 mM HEPES pH 7.4, 120 mM NaCl, 10% glycerol, 2 mM EDTA; immunoblot; only the target purified
[1] = target: HA-tagged full-length Cyclophilin E (CypE, amino acids 1–314) (UniProt Q9UNP9); experiment: co-IP; HEK 293 cells co-transfected for 48 h; whole-cell lysate (25 mM HEPES pH 7.4, 150 mM NaCl, 1% NP-40, 0.25% Na-Doc) incubated with HA or Myc antibody overnight, Protein A Sepharose CL-4B 1 h at 4 °C; immunoblot
GST-Runx2 = GST-Runx2 (UniProt Q08775); experiment: pull-down; Glutathione-Sepharose beads carrying GST, GST-Runx2 or GST-CypE incubated with whole-cell lysate of transfected HEK 293 cells at 4 °C overnight; washed with 20 mM HEPES pH 7.4, 120 mM NaCl, 10% glycerol, 2 mM EDTA; immunoblot; only the target purified

Substance | binding (GST-CypE) | binding [1] | binding (GST-Runx2)
Myc-Runx2 Runt homology domain (R) (from UniProt Q08775 187-315) (domain or fragment) | binds | binds | –
HA-tagged full-length Cyclophilin E (CypE, amino acids 1–314) (from UniProt Q9UNP9-3 1-314) | – | – | binds
Myc-CypE 137–314 (from UniProt Q9UNP9-3 137-314) (domain or fragment) | – | – | binds
Myc-CypE (from UniProt Q9UNP9-3 1-314) | – | – | binds
Myc-tagged Runx2 (full length) (from UniProt Q08775 1-607) | binds | binds | –
